For four molecules, binding results are on record in patent US20190169301A1 (Boehringer Ingelheim, published 2019).

In assay [1] the target is T1, human CD40-Fc protein (human, UniProt P25942 21-193).
T1 construct: also called recombinant CD40 protein; not shown: Fc part
Briefly: ForteBio Octet, CD40-Fc, absence and presence of 50% human serum.

Assay [2] addresses cynomolgus monkey CD40 on cells (B cells, platelets) (cynomolgus monkey) (UniProt G7PG38). Briefly: flow cytometry, directly labeled antibody, B cells and platelets in cynomolgus monkey whole blood.
Assay [3] has as its target human CD40 on cells (CD40-transfected HEK293 cells, Ramos cells, human B cells, human platelets) (human) (UniProt P25942). The assay is described as follows: flow cytometry, human CD40-transfected HEK293 cells.
The target is the same in assay [4]. Briefly: flow cytometry, directly labeled antibody, B cells and platelets in human whole blood.
For assay [5] the target is unchanged. The assay is described as follows: flow cytometry (MFI) on CD40-transfected HEK cells.
The target is the same in assay [6]. The assay is described as follows: flow cytometry, human Ramos cells.
The target of assay [7] is cynomolgus monkey CD40 on cells (B cells, platelets) (cynomolgus monkey) (UniProt G7PG38). Briefly: flow cytometry, FITC-labeled antibody, cynomolgus platelets.

These are yes or no findings as the source states them, for the method shown. Some results given as binding are weak or reduced against the parent protein; the word gives no strength.

B1: Antibody C (IgG1KO) (antibody, V domains shown)
VH: QVQLVQSGAEVKKPGASVKVSCTASGFNIKDYYVHWVKQAPGQGLEWMGRIDPEDGDSKYAPKFQGKATMTADTSTSTVYMELSSLRSEDTAVYYCTTSYYVGTYGYWGQGTLVTVSS
VL: DIQMTQSPSSLSASVGDRVTITCSASSSVSYMLWFQQKPGKAPKLLIYSTSNLASGVPSRFSGSGSGTDFTLTISSLQPEDFATYYCQQRTFYPYTFGGGTKVEIKR
notes: also called 2H11-159-94
B1: the binding result in assay [1] is given as “binds”.

B2: Antibody A (IgG1KO) (antibody, V domains shown)
VH: EVQLVESGGGLVKPGGSLRLSCAASGFTFSDYGMHWVRQAPGKGLEWVAYISSGNRIIYYADTVKGRFTISRDNAKNSLYLQMNSLRAEDTALYYCARQDGYRYAMDYWAQGTLVTVSS
VL: DIVMTQSPDSLAVSLGERATMSCKSSQSLLNSGNQKNYLTWHQQKPGQPPKLLIYWTSTRESGVPDRFSGSGSGTDFTLTISSLQAEDVAVYYCQNDYTYPLTFGGGTKVEIKR
notes: also called 20E2-12
Take B2: the binding result in assay [1] is “binds”.

B3: Antibody B (IgG1KO) (antibody, V domains shown)
VH: EVQLVESGGGLVKPGGSLRLSCAASGFTFSDYGMHWVRQAPGKGLEWVAYISSGNRIIYYADTVKGRFTISRDNAKNSLYLQMNSLRAEDTAVYYCARQDGYRYAMDYWGQGTLVTVSS
VL: DIVMTQSPDSLAVSLGEKVTINCKSSQSLLNSGNQKNYLTWHQQKPGQPPKLLIYWTSTRESGVPDRFSGSGSGTDFTLTISSLQAEDVAVYYCQNDYTYPLTFGGGTKVEIKR
For the molecule B3, the binding entry in assay [2], in assay [3], in assay [1], in assay [4], in assay [5] and in assay [6] was “binds” each time.

B4: 2H11 (murine anti-human CD40 antibody) (antibody, V domains shown)
VH: EVQLQQSGAELVRPGASVKLSCTASGFNIKDYYVHWVKQRPEKGLEWIGRIDPEDGDSKYAPKFQGKATMTADTSSNTAYLHLSSLTSEDTAVYYCTTSYYVGTYGYWGQGTTLTVSS
VL: QIVLTQSPAIMSASPGEKVTITCSASSSVSYMLWFQQKPGTSPKLWIYSTSNLASGVPARFGGSGSGTSYSLTISRMEAEDAATYYCQQRTFYPYTFGGGTKLEIK
notes: Mouse monoclonal antibody
For the molecule B4, the binding result in assay [7] was “binds”.
